Record: PubChem BioAssay AID1159578 (Peter MacCallum Cancer Centre, 2015)
Purpose: 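siRNA pools altering how lymphatic endothelial cells close a scratch wound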 (primary screen). Cell system: human lymphatic endothelial cells. Reagents: siRNA pool against human genes, 40 nM. Time to read-out: 48 h after transfection. Detection: 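High-content imaging of dye-stained cells in a scratch assay measures filled wound area and nuclei per well; duplicate means given as ratio to mock and robust z-score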. Scale: migration robust z-score: higher = faster migration into the scratch; nuclei per well: higher = more cells in the well. Hit rule: 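Pools averaging fewer than 3300 nuclei are never called; remaining pools count as changed when migration robust z lies outside -2 to 2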. Calls: active = migration changed; inactive = no migration change, or too few cells.
Shown is a random part of about 18,000 deposited reagents. About 1,030 of all reagents (5.7%) were called active. 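Inactive calls also include pools with fewer than 3300 nuclei, whose migration was not assessed.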 The raw values are shown without normalisation. Further read-outs or replicates are left out here.

FOXA2 (forkhead box A2)
- migration robust z-score: 0.57
- nuclei per well, duplicate mean: 6796
- Outcome: inactive

DPH7 (diphthamide biosynthesis 7)
- migration robust z-score: -1.81
- nuclei per well, duplicate mean: 6034
- Outcome: inactive

GDAP1L1
- migration robust z-score: 1.01
- nuclei per well, duplicate mean: 5121
- Outcome: inactive

HTR2B (5-hydroxytryptamine receptor 2B)
- migration robust z-score: 0.57
- nuclei per well, duplicate mean: 5612
- Outcome: inactive

MAP2K1 (mitogen-activated protein kinase kinase 1)
- migration robust z-score: 0.34
- nuclei per well, duplicate mean: 4824
- Outcome: inactive

Next part, starting with the last 2 of the part before.
HTR2B (5-hydroxytryptamine receptor 2B)
- migration robust z-score: 0.57
- nuclei per well, duplicate mean: 5612
- Outcome: inactive

MAP2K1 (mitogen-activated protein kinase kinase 1)
- migration robust z-score: 0.34
- nuclei per well, duplicate mean: 4824
- Outcome: inactive

UFSP1 (UFM1 specific peptidase 1)
- migration robust z-score: -0.64
- nuclei per well, duplicate mean: 6526
- Outcome: inactive

SVOPL (SVOP like)
- migration robust z-score: -1.27
- nuclei per well, duplicate mean: 7118
- Outcome: inactive

ZNF85 (zinc finger protein 85)
- migration robust z-score: -1.66
- nuclei per well, duplicate mean: 5332
- Outcome: inactive

SLC7A6
- migration robust z-score: -0.06
- nuclei per well, duplicate mean: 5561
- Outcome: inactive

VKORC1 (vitamin K epoxide reductase complex subunit 1)
- migration robust z-score: -0.42
- nuclei per well, duplicate mean: 4105
- Outcome: inactive

OR2T3 (olfactory receptor family 2 subfamily T member 3)
- migration robust z-score: 1.53
- nuclei per well, duplicate mean: 5832
- Outcome: inactive

DEPTOR (DEP domain containing MTOR interacting protein)
- migration robust z-score: 0.2
- nuclei per well, duplicate mean: 5719
- Outcome: inactive

GUCY2D (guanylate cyclase 2D, retinal)
- migration robust z-score: -1.95
- nuclei per well, duplicate mean: 3809
- Outcome: inactive

GLS (glutaminase)
- migration robust z-score: -1.89
- nuclei per well, duplicate mean: 3532
- Outcome: inactive
